According to patent publication US12121565B2, “Methods of treatment of specific cancers with NLRP3 inhibitors and anti-PD1/PD-L1 antibodies” (Duke University, priority 2019, dated 2024):
Entries after “also recorded” stand apart in the source; their conditions may differ. At least one structure is not confirmed: it was looked up by name or label, or the drawing left a doubt.

Legend:
[1] = test system: BRAFV600E PTEN−/− melanoma cell line; experiment: In vitro treatment of melanoma cell line followed by Western blot, qRT-PCR, IP, ASC polymerization or ELISA; format: cell-based, mouse
Text: Braf^V600EPten^−/− (male, BPD6 (40)), Braf^V600EPten^−/−-Wnt5a^KD (40), Braf^V600EPten^−/−-CXCL5^KD, Braf^V600EPten^−/−-PDL1^KD, Braf^V600EPten^−/−-NLRP3^KD, OVA-expressing Braf^V600EPten^−/−, BRAF^V600EPTEN^−/−-STAT3^CA, and Braf^V600EPten^−/−-NTC (40) cell lines were generated using shRNA-expressing lentiviral vectors and cultured as previously described (40): shNLRP3 (Sigma, SHCLN-NM_145827), shPDL1 (Sigma, SHCLND-NM_021893), shWnt5a (Sigma, SHCLND-NM_009524), shTLR4 (Sigma, SHCLNG-NM_025817, and pLKO.1-puro empty vector control (NTC) (Sigma, SHC001). Stable cell lines were selected by puromycin resistance (Sigma-Aldrich, P8833). Murine Lewis Lung Carcinoma (LLC) cell line is from ATCC (1704526). All cell lines were tested Mycoplasma-free by Duke University Cell Culture Facility shared services. All Braf^V600EPten^−/− cell lines and the LLC cell line were maintained at 37° C. in DMEM (Invitrogen) with 2 mM L-glutamine, supplemented with 10% fetal bovine serum, 100 units/ml penicillin. […]

[2] = test system: syngeneic BRAFV600E PTEN−/− melanomas; experiment: Syngeneic transplant tumor study: tumor growth, flow cytometry, Western blot, ELISA, qRT-PCR; format: in vivo, mouse; conditions: dacarbazine 50 mg/kg or 75 mg/kg i.p. q.o.d. versus vehicle
Description: B6.Cg-Braf^tm1MmcmPten^tm1Hwu Tg(Tyr-cre/ERT2 H-2^b)13Bos/BosJ transgenic mice were subdermally injected with 4-Hydroxytomoxifen (4-HT) (Sigma, H6278-50MG CCF, 38.75 μg/mouse) to induce primary melanoma development at the base of the tail. Mice were randomly assigned to treatment cohorts once tumor volumes reached 64 mm^3 (19, 30, 50). Depending on the experiment, mice were treated with the following agents: CXCR2 inhibitor (AZD5069, AstraZeneca) at 100 mg/kg per os (po) twice daily, NLRP3 inhibitor (MCC950) 10 mg/kg i.p every other day, anti-PD1 ab (BioXCell) or rat IgG2a isotype control (BioXCell) at 200 μg by i.p. injection every 3 days, Dacarbazine (50 mg/kg or 75 mg/kg, Sigma-Aldrich, D2390) by i.p. injection once every other day. Melanoma growth was monitored by orthogonal caliper measurements every 3 days.
Braf^V600EPten^−/−, Braf^V600EPten^−/−-NTC, Braf^V600EPten^−/−-Wnt5a^KD, Braf^V600EPten^−/−-CXCL5^KD, Braf^V600EPten^−/−-PDL1^KD, and Braf^V600EPten^−/−-NLRP3^KD cell lines (0.5×10^5-1×10^5 cells) were implanted by subcutaneous injection into the base of the tail of syngeneic C57BL/6 mice. Tumor growth was monitored by caliper measurement every 3 days and treatment was initiated when tumor volumes reached 64 mm^3. Tumor volume was calculated according to the formula: cm^3=[(length (cm)×(width (cm))^2]/2.
One million cells were stained with 1 μg per million cells of each fluorochrome conjugated antibodies or commercially available dyes according to the standard protocols and analyzed using a FACSCanto II or LSRII (Becton Dickinson). Cells were stained with Fc receptor blocking antibodies followed by a live/dead discriminator (CellTrace Violet, ThermoFisher, C34571), then by conjugated antibodies for 30 min at 4° C. Cell number was calculated by hemocytometer. Flow cytometry data was analyzed using Flowjo software v10.3.
Tumor tissue or cells were homogenized in NP40 lysis buffer (Sigma-Aldrich) supplemented with complete protease inhibitor and phosphatase inhibitor (Roche). […]

For `CN(C)/N=N/c1[nH]cnc1C(N)=O` [dacarbazine], the HSP70 release ([1]; increasing concentrations of dacarbazine) was “not associated with increased HSP70 release; also recorded: did not induce significant levels”, the “melanoma cell death / apoptosis” value ([1]; increasing concentrations of dacarbazine in vitro) was “capable of inducing; also recorded: readily induced” and the “melanoma progression in vivo” value [2] was “suppressed”. The “numbers of tumor-infiltrating CD8+ T cells” value [2] was “did not influence” and the “recruitment of PMN-MDSCs” value [2] was “did not influence”.
